Results taken from patent publication US20260217701A1, “SELECTIVE BET INHIBITORS AND USES THEREOF” (Tay Therapeutics Limited, priority 2022, published 2026).
“And” between values parts separate entries of the source, which are not always exact repeats. Equal values may be shown once. This continues a long series; more values of the same kind are listed elsewhere.

Experiments:
IL-17A = IL-17A release from activated human PBMCs (ELISA); format: cell-based; settings: Donors 1-7, two values per donor
Method: Human PBMCs used to analyze inhibition of CXCL10 were collected from 8 donors, PBMCs used to analyze inhibition of IL-17A were collected from 7 donors, and PBMCs used to analyze inhibition of IL-22 were collected from 6 donors. Compounds were serially diluted in 10 mM DMSO and further diluted in assay media to 100× the required final concentration, of which 2 μL was added to the specified well. […] The cell culture supernatant was collected and levels of IL-17A and IL-22 in the supernatant were assessed by ELISA (Invitrogen).

[1] = CIA study: animal body weight; settings: for Animal body weight percent change (%): individual animals

For `Cn1cc(-c2ccccc2)c(-c2cn(C)c(=O)c3[nH]c(-c4cnn(C(F)(F)F)c4)cc23)cc1=O` [Compound A, 6-methyl-4-(1-methyl-2-oxo-5-phenyl-1,2-dihydropyridin-4-yl)-2-(1-(trifluoromethyl)-1H-pyrazol-4-yl)-1,6-dihydro-7H-pyrrolo[2,3-c]pyridin-7-one], the “Percent Inhibition Relative to Control (IL-17A)” value (IL-17A; Compound Conc. 0.003703704 μM) was 70.33% and 80.41% and 67.79% and 60.5% and 70.45% and 69.67% and 63.45% and 71.06% and 74.87% and 79.08% and 75.92% and 67.69% and 54.36% and 79.88%, the “Percent Inhibition Relative to Control (IL-17A)” value (IL-17A; Compound Conc. 0.011111111 μM) was 71.45% and 66.86% and 67.16% and 58.72% and 76.44% and 74.19% and 71.49% and 77.11% and 71.75% and 72.53% and 79.11% and the Animal body weight ([1]; CIA + Compound A 1 mg/kg, Day 0, 1 mg/kg) was 163 g and 165 g and 164 g and 162 g and 152 g and 169 g and 167 g. The Animal body weight ([1]; CIA + Compound A 1 mg/kg, Day 1, 1 mg/kg) was 167 g and 169 g and 158 g and 155 g and 170 g, the Animal body weight ([1]; CIA + Compound A 1 mg/kg, Day 2, 1 mg/kg) was 166 g and 169 g and 159 g and 167 g and 151 g and 165 g and 161 g and the Animal body weight ([1]; CIA + Compound A 1 mg/kg, Day 3, 1 mg/kg) was 165 g and 166 g and 159 g and 169 g and 156 g and 164 g and 167 g and 171 g. For the same compound, the Animal body weight ([1]; CIA + Compound A 1 mg/kg, Day 4, 1 mg/kg) was 168 g and 166 g and 159 g and 157 g and 170 g and 169 g, the Animal body weight ([1]; CIA + Compound A 1 mg/kg, Day 5, 1 mg/kg) was 170 g and 178 g and 165 g and 172 g and 156 g and 171 g and the Animal body weight ([1]; CIA + Compound A 1 mg/kg, Day 6, 1 mg/kg) was 170 g and 180 g and 157 g and 176 g and 161 g and 171 g and 175 g. The Animal body weight ([1]; CIA + Compound A 1 mg/kg, Day 7, 1 mg/kg) was 171 g and 182 g and 157 g and 162 g and 170 g and 174 g and 169 g, the Animal body weight ([1]; CIA + Compound A 1 mg/kg, Day 8, 1 mg/kg) was 166 g and the Animal body weight ([1]; CIA + Compound A 1 mg/kg, Day 11, 1 mg/kg) was 171 g. The Animal body weight ([1]; CIA + Compound A 1 mg/kg, Day 13, 1 mg/kg) was 166 g, the Animal body weight ([1]; CIA + Compound A 1 mg/kg, Day 14, 1 mg/kg) was 172 g and the Animal body weight ([1]; CIA + Compound A 1 mg/kg, Day 15, 1 mg/kg) was 175 g and 182 g and 154 g and 174 g and 158 g and 171 g and 168 g and 165 g. The Animal body weight ([1]; CIA + Compound A 1 mg/kg, Day 16, 1 mg/kg) was 176 g and 182 g and 157 g and 170 g and 156 g and 173 g and 164 g and 161 g, the Animal body weight ([1]; CIA + Compound A 1 mg/kg, Day 17, 1 mg/kg) was 177 g and 155 g and 174 g and 157 g and 173 g and 164 g and 160 g and the Animal body weight ([1]; CIA + Compound A 1 mg/kg, Day 18, 1 mg/kg) was 177 g and 174 g and 156 g and 173 g and 155 g and 175 g and 164 g and 162 g. For the same compound, the Animal body weight ([1]; CIA + Compound A 1 mg/kg, Day 19, 1 mg/kg) was 174 g and 170 g and 152 g and 171 g and 154 g and 176 g and 163 g and 164 g, the Animal body weight ([1]; CIA + Compound A 1 mg/kg, Day 20, 1 mg/kg) was 181 g and 173 g and 154 g and 170 g and 175 g and 162 g and 161 g and the Animal body weight ([1]; CIA + Compound A 1 mg/kg, Day 21, 1 mg/kg) was 179 g and 170 g and 153 g and 166 g and 174 g and 159 g and 163 g. For the same compound, the Animal body weight ([1]; CIA + Compound A 3 mg/kg, Day 0, 3 mg/kg) was 168 g and 171 g and 175 g and 167 g and 163 g and 157 g and 156 g, the Animal body weight ([1]; CIA + Compound A 3 mg/kg, Day 1, 3 mg/kg) was 163 g and 172 g and 175 g and 161 g and 166 g and 160 g and 158 g and the Animal body weight ([1]; CIA + Compound A 3 mg/kg, Day 2, 3 mg/kg) was 162 g and 171 g and 173 g and 166 g and 165 g and 159 g and 158 g. For the same compound, the Animal body weight ([1]; CIA + Compound A 3 mg/kg, Day 3, 3 mg/kg) was 160 g and 168 g and 170 g and 162 g and 164 g and 158 g, the Animal body weight ([1]; CIA + Compound A 3 mg/kg, Day 4, 3 mg/kg) was 167 g and 173 g and 175 g and 159 g and 165 g and 156 g and the Animal body weight ([1]; CIA + Compound A 3 mg/kg, Day 5, 3 mg/kg) was 166 g and 177 g and 178 g and 160 g and 163 g and 168 g and 167 g and 154 g. For the same compound, the Animal body weight ([1]; CIA + Compound A 3 mg/kg, Day 6, 3 mg/kg) was 163 g and 174 g and 176 g and 160 g and 164 g and 167 g and 168 g and 157 g, the Animal body weight ([1]; CIA + Compound A 3 mg/kg, Day 7, 3 mg/kg) was 157 g and 172 g and 173 g and 162 g and 163 g and 164 g and 166 g and 154 g and the Animal body weight ([1]; CIA + Compound A 3 mg/kg, Day 15, 3 mg/kg) was 161 g and 174 g and 170 g and 159 g and 166 g and 158 g. For the same compound, the Animal body weight ([1]; CIA + Compound A 3 mg/kg, Day 16, 3 mg/kg) was 158 g and 169 g and 170 g and 159 g and 165 g and 157 g, the Animal body weight ([1]; CIA + Compound A 3 mg/kg, Day 17, 3 mg/kg) was 154 g and 170 g and 168 g and 169 g and 158 g and 167 g and 162 g and 156 g and the Animal body weight ([1]; CIA + Compound A 3 mg/kg, Day 18, 3 mg/kg) was 155 g and 169 g and 167 g and 171 g and 157 g and 168 g and 166 g. For the same compound, the Animal body weight ([1]; CIA + Compound A 3 mg/kg, Day 19, 3 mg/kg) was 156 g and 169 g and 168 g and 165 g and 166 g and 152 g, the Animal body weight ([1]; CIA + Compound A 3 mg/kg, Day 20, 3 mg/kg) was 155 g and 165 g and 164 g and 162 g and 161 g and 170 g and 163 g and 153 g and the Animal body weight ([1]; CIA + Compound A 3 mg/kg, Day 21, 3 mg/kg) was 156 g and 166 g and 165 g and 163 g and 162 g and 155 g. The Animal body weight ([1]; CIA + Compound A 10 mg/kg, Day 0, 10 mg/kg) was 173 g and 164 g and 167 g and 159 g and 160 g and 156 g and 161 g and 158 g, the Animal body weight ([1]; CIA + Compound A 10 mg/kg, Day 1, 10 mg/kg) was 165 g and 168 g and 171 g and 163 g and 164 g and 154 g and 162 g and the Animal body weight ([1]; CIA + Compound A 10 mg/kg, Day 2, 10 mg/kg) was 170 g and 167 g and 159 g and 164 g and 154 g and 161 g and 162 g. The Animal body weight ([1]; CIA + Compound A 10 mg/kg, Day 3, 10 mg/kg) was 169 g and 167 g and 171 g and 158 g and 170 g and 154 g and 157 g and 160 g, the Animal body weight ([1]; CIA + Compound A 10 mg/kg, Day 4, 10 mg/kg) was 169 g and 163 g and 160 g and 168 g and 155 g and 161 g and 162 g and the Animal body weight ([1]; CIA + Compound A 10 mg/kg, Day 5, 10 mg/kg) was 167 g and 172 g and 161 g and 170 g and 160 g and 163 g and 166 g. The Animal body weight ([1]; CIA + Compound A 10 mg/kg, Day 6, 10 mg/kg) was 168 g and 167 g and 172 g and 165 g and 170 g and 155 g and 162 g, the Animal body weight ([1]; CIA + Compound A 10 mg/kg, Day 7, 10 mg/kg) was 164 g and 168 g and 173 g and 160 g and 153 g and 159 g and the Animal body weight ([1]; CIA + Compound A 10 mg/kg, Day 8, 10 mg/kg) was 164 g and 165 g and 160 g and 155 g and 158 g. The Animal body weight ([1]; CIA + Compound A 10 mg/kg, Day 9, 10 mg/kg) was 165 g and 168 g and 160 g and 152 g and 162 g and 166 g, the Animal body weight ([1]; CIA + Compound A 10 mg/kg, Day 10, 10 mg/kg) was 172 g and 161 g and 167 g and 153 g and the Animal body weight ([1]; CIA + Compound A 10 mg/kg, Day 11, 10 mg/kg) was 173 g and 170 g and 162 g and 167 g and 152 g and 160 g and 168 g. For the same compound, the Animal body weight ([1]; CIA + Compound A 10 mg/kg, Day 12, 10 mg/kg) was 173 g and 170 g and 160 g and 168 g and 153 g and 165 g, the Animal body weight ([1]; CIA + Compound A 10 mg/kg, Day 13, 10 mg/kg) was 170 g and 172 g and 157 g and 162 g and 156 g and 160 g and 166 g and the Animal body weight ([1]; CIA + Compound A 10 mg/kg, Day 14, 10 mg/kg) was 169 g and 170 g and 154 g and 161 g and 157 g and 163 g and 160 g. For the same compound, the Animal body weight ([1]; CIA + Compound A 10 mg/kg, Day 15, 10 mg/kg) was 162 g and 170 g and 169 g and 154 g and 160 g and 157 g and 167 g, the Animal body weight ([1]; CIA + Compound A 10 mg/kg, Day 16, 10 mg/kg) was 163 g and 165 g and 171 g and 153 g and 157 g and 154 g and 164 g and the Animal body weight ([1]; CIA + Compound A 10 mg/kg, Day 17, 10 mg/kg) was 164 g and 162 g and 166 g and 155 g and 168 g and 160 g and 154 g. The Animal body weight ([1]; CIA + Compound A 10 mg/kg, Day 18, 10 mg/kg) was 161 g and 160 g and 168 g and 155 g and 167 g and 162 g and 153 g, the Animal body weight ([1]; CIA + Compound A 10 mg/kg, Day 19, 10 mg/kg) was 163 g and 156 g and 170 g and 155 g and 165 g and 161 g and 153 g and the Animal body weight ([1]; CIA + Compound A 10 mg/kg, Day 20, 10 mg/kg) was 164 g and 158 g and 167 g and 157 g and 165 g and 163 g and 153 g. For the same compound, the Animal body weight ([1]; CIA + Compound A 10 mg/kg, Day 21, 10 mg/kg) was 162 g and 155 g and 167 g and 160 g and 164 g and 165 g and 151 g and 163 g, the “Animal body weight percent change (%)” value ([1]; Day 0, Group 5 (CIA + Compound A 1 mg/kg)) was 0.00% and the “Animal body weight percent change (%)” value ([1]; Day 0, Group 6 (CIA + Compound A 3 mg/kg)) was 0.00%.
